PubChem BioAssay AID504808 | Drosophila RNAi Screening Center – 2011
The screen tested about 21,000 reagents; this is an unselected part of those with a known target gene and a result. In the full data, 18 (0.084%) got an active call. 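Raw counts without plate normalisation, one of two replicates; the ratio scores behind the calls were not deposited.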 The numbers tell different reagents against one gene apart. Names joined by + are all predicted targets of the reagent. Not given: the amount of reagent, the time to read-out.

Aim: 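Chromatin factors that keep E2F targets switched off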 (primary screen)
Cell system: Drosophila S2 cells
Knock-down reagent: long dsRNA against Drosophila genes
Measurement: 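Firefly luciferase driven by E2F sites, normalised to Renilla luciferase on the same minimal promoter, measured by plate reader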
Reading the numbers: E2F firefly: higher = more E2F reporter activity; Renilla normaliser: higher = more normaliser reporter signal
Call rule: 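Called active if the normalised E2F reporter went up by over 50%; the cutoff is arbitrary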

Gene | dsRNA no. | E2F firefly, rep 1 | Renilla normaliser, rep 1 | call
CG6040 | 1 | 73044 | 3486 | inactive
Gapdh2 | 1 | 1.56e5 | 7275 | inactive
slim | 1 | 81729 | 4091 | inactive
CG17192 | 1 | 1.05e5 | 5333 | inactive
Ge-1 | 1 | 72227 | 3074 | inactive
CG2111 | 1 | 1.34e5 | 5649 | inactive
Wdr37 | 1 | 65249 | 3247 | inactive
fs(1)h | 1 | 66484 | 736 | inactive
Eaf | 1 | 90994 | 4700 | inactive
Eaf | 2 | 83491 | 3751 | inactive
CG15024 | 1 | 91820 | 3763 | inactive
CG18081 | 1 | 1.59e5 | 7925 | inactive
CG34288 | 1 | 91615 | 2729 | inactive
Usp39 | 1 | 1.36e5 | 5143 | inactive
CG14043 | 1 | 1.23e5 | 4564 | inactive
CG1161 | 1 | 61964 | 3977 | inactive
nkd | 1 | 1.25e5 | 5966 | inactive
Ada2b | 1 | 1.19e5 | 7254 | inactive
mey | 1 | 2018 | 1240 | inactive
CG42735 (retired record) | 1 | 1.33e5 | 5758 | inactive
CG31245 | 1 | 1.43e5 | 5688 | inactive
CG14696 | 1 | 1.25e5 | 6357 | inactive
Ssb-c31a | 1 | 1.47e5 | 5185 | inactive
CG7215 + Prx5 | 1 | 1.50e5 | 8079 | inactive
CG7215 + Prx5 | 2 | 85918 | 5556 | inactive
bcd + CR14578 | 1 | 1.37e5 | 6252 | inactive
Grl36b | 1 | 1.48e5 | 5969 | inactive
galla-1 | 1 | 96573 | 4063 | inactive
Daao1 | 1 | 1.53e5 | 5364 | inactive
RpL3 + CG6693 | 1 | 66791 | 3677 | inactive
RhoU | 1 | 83974 | 2865 | inactive
RhoU | 2 | 1.17e5 | 2620 | inactive
RhoU | 3 | 68489 | 4624 | inactive
CG15876 | 1 | 1.10e5 | 4486 | inactive
Tektin-C | 1 | 61968 | 3900 | inactive
CG4553 | 1 | 1.06e5 | 5497 | inactive
tsh | 1 | 1.07e5 | 4596 | inactive
CG33796 | 1 | 1.25e5 | 3668 | inactive
CG42458 | 1 | 58649 | 2934 | inactive
CG1927 | 1 | 67981 | 3572 | inactive
wam | 1 | 99176 | 6515 | inactive
CG2964 | 1 | 1.54e5 | 150 | inactive
Cpr100A | 1 | 1.28e5 | 6202 | inactive
CG1662 | 1 | 7504 | 792 | inactive
CG11550 | 1 | 1.09e5 | 5291 | inactive
Spn42Db | 1 | 1.39e5 | 4741 | inactive
CG14015 | 1 | 1.58e5 | 4716 | inactive
CG8299 | 1 | 1.39e5 | 4709 | inactive
mRpL23 | 1 | 97028 | 4843 | inactive
CG15014 | 1 | 87922 | 3559 | inactive
tn | 1 | 1.63e5 | 7510 | inactive
tn | 2 | 84926 | 4011 | inactive
CG30271 | 1 | 99747 | 4462 | inactive
Dys | 1 | 86282 | 2935 | inactive
Dys | 2 | 89105 | 2578 | inactive
Dys | 3 | 1.29e5 | 7166 | inactive
Dys | 4 | 1.37e5 | 7459 | inactive
Dys | 5 | 1.32e5 | 8032 | inactive
Dys | 6 | 1.49e5 | 8723 | inactive
Dys | 7 | 1.32e5 | 7235 | inactive
CG34107 | 1 | 1.44e5 | 6379 | inactive
Kap-alpha1 | 1 | 1.17e5 | 7164 | inactive
CG3281 | 1 | 74493 | 3450 | inactive
CG5327 | 1 | 1.38e5 | 5042 | inactive
Jhbp7 | 1 | 1.14e5 | 5730 | inactive
CG15387 | 1 | 1.83e5 | 6955 | inactive
CG15818 | 1 | 94096 | 3635 | inactive
pav | 1 | 1.03e5 | 3528 | inactive
CG2150 | 1 | 86878 | 4730 | inactive
CG12391 | 1 | 2831 | 170 | inactive
chb | 1 | 98542 | 4037 | inactive
Bmcp | 1 | 64606 | 2987 | inactive
CG6607 | 1 | 1.01e5 | 5907 | inactive
CG33095 | 1 | 1.17e5 | 6257 | inactive
CG10581 | 1 | 1.46e5 | 6477 | inactive
sei | 1 | 79031 | 3344 | inactive
CG13252 | 1 | 1.48e5 | 7025 | inactive
SERCA | 1 | 77640 | 3482 | inactive
CG4806 | 1 | 1.02e5 | 5085 | inactive
CG13003 | 1 | 1.64e5 | 6505 | inactive
CG14259 | 1 | 1.22e5 | 6318 | inactive
nocte | 1 | 9458 | 956 | inactive
CG9107 | 1 | 89639 | 3145 | inactive
GstE5 | 1 | 1.50e5 | 5138 | inactive
CG2691 | 1 | 7040 | 740 | inactive
CG18675 | 1 | 91993 | 3659 | inactive
brun | 1 | 86775 | 3938 | inactive
Ipk2 | 1 | 1.76e5 | 6955 | inactive
CG4982 | 1 | 51642 | 3188 | inactive
CG15366 (retired record) | 1 | 1.24e5 | 4604 | inactive
HDAC11 | 1 | 1.06e5 | 6320 | inactive
CR46300 | 1 | 89474 | 4881 | inactive
CG31869 | 1 | 1.52e5 | 5304 | inactive
CG31869 | 2 | 1.51e5 | 5335 | inactive
kermit | 1 | 3237 | 202 | inactive
Nup107 | 1 | 1.32e5 | 4393 | inactive
Ttc26 | 1 | 48943 | 3942 | inactive
CG3857 | 1 | 1622 | 888 | inactive
PIP5K59B | 1 | 59398 | 3524 | inactive
PIP5K59B | 2 | 99505 | 4086 | inactive
UQCR-6.4 | 1 | 1.38e5 | 4867 | inactive
Manf | 1 | 65568 | 3379 | inactive
CG33969 | 1 | 1.29e5 | 6211 | inactive
CG12024 | 1 | 70626 | 3426 | inactive
l(2)05714 | 1 | 1.00e5 | 3933 | inactive
CG18659 | 1 | 1.47e5 | 4878 | inactive
CG32187 | 1 | 1.59e5 | 8212 | inactive

Already shown: entries from further up.
Gene | dsRNA no. | E2F firefly, rep 1 | Renilla normaliser, rep 1 | call
Ada2b | 1 | 1.19e5 | 7254 | inactive
mey | 1 | 2018 | 1240 | inactive
CG42735 (retired record) | 1 | 1.33e5 | 5758 | inactive
CG31245 | 1 | 1.43e5 | 5688 | inactive
CG14696 | 1 | 1.25e5 | 6357 | inactive
Ssb-c31a | 1 | 1.47e5 | 5185 | inactive
CG7215 + Prx5 | 1 | 1.50e5 | 8079 | inactive
CG7215 + Prx5 | 2 | 85918 | 5556 | inactive
bcd + CR14578 | 1 | 1.37e5 | 6252 | inactive
Grl36b | 1 | 1.48e5 | 5969 | inactive
galla-1 | 1 | 96573 | 4063 | inactive
Daao1 | 1 | 1.53e5 | 5364 | inactive
